# About 1,800 (2.3%) of roughly 78,000 compounds were called active. The shares of active, inactive and inconclusive entries below differ from those in the screen. Cut-off read from the data, not from the text of the source: active = inhibition above about 30%; inconclusive = mostly about 10% to 28%; inactive = weaker than that.
# Amino acid sequences for entries named in this document (tags omitted). A change or cut given only in a name is not applied to a line headed by its entry.
# UniProt Q01638: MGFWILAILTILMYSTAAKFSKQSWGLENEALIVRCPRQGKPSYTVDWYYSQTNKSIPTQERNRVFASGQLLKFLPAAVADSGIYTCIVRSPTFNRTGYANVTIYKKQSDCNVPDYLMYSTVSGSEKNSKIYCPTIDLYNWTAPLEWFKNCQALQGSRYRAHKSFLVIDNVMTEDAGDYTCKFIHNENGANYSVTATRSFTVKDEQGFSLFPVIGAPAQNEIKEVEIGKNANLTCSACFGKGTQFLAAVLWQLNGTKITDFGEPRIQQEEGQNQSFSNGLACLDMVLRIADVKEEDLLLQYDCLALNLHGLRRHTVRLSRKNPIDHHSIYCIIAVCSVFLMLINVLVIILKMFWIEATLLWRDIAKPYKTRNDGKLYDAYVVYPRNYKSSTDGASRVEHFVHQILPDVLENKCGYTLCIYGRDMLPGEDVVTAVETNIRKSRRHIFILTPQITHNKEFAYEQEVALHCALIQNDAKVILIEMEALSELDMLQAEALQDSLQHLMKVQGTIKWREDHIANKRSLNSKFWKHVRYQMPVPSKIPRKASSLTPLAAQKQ
# Target: Interleukin-1 receptor-like 1 (Homo sapiens) (UniProt Q01638)
# Assay: blocks human ST2 binding to IL-33, primary screen, biochemical, AlphaLISA (AID 1259354)
# Settings: AlphaLISA ST2-Fc/biotin-IL-33 interaction, 1 h; at 17 µM, hits give high values
row,Structure (SMILES),inhibition
1,COc1ccc(Cc2nc3ccc(C(=O)N4CCc5ccccc5C4)cc3o2)cc1OC,inconclusive: 10%
2,Nc1nc(CCC(=O)N2CCCC(N3CCC(CO)CC3)C2)cs1 (stereo unspecified),inconclusive: 12%
3,CC(=O)c1c(C)nn(CCC(=O)N2CCCC(O)(CN(C)C)C2)c1C (stereo unspecified),inconclusive: 22%
4,CCc1cn(C[C@H](NC(=O)C2CCCC2)C(=O)O)c(=O)[nH]c1=O,inconclusive: 10%
5,Cc1nc2ccccc2c2oc(C(=O)N3CCCCCC3)cc12,inconclusive: 10%
6,CCOC(=O)CSc1nc2c([nH]c3ccccc32)c(=O)n1-c1ccc(OCC)cc1,inconclusive: 13%
7,CC(=O)Nc1cccc(N2C(=O)c3c(C)nc4ccccc4c3C2=O)c1,inconclusive: 14%
8,N#Cc1c(-c2ccccc2)cc(-c2ccccc2)nc1Cl,inconclusive: 17%
9,CN1CC(=O)N2CCN(Cc3ccc(Oc4ccccc4)nc3)CC2C1=O (stereo unspecified),inactive
10,CCn1cc(SCC(=O)Nc2nnc(C)s2)c2ccccc21,inactive
11,CC1(C(=O)NC2CCCCCCC2)CCC(=O)N1Cc1cccs1 (stereo unspecified),inconclusive: 11%
12,Cc1ccc(C2C(C#N)C(=O)NC(=O)C2[n+]2ccccc2)cc1 (stereo unspecified),inconclusive: 14%
13,CCC1CN(CCNC(=O)CSc2nnc(C)s2)Cc2cc(OC)ccc2O1 (stereo unspecified),inconclusive: 10%
14,CCC(C)NS(=O)(=O)c1ccc2c(c1)CCN2C(=O)C1CC1 (stereo unspecified),inconclusive: 12%
15,CCOC(=O)C1=C(N)OC2=C(C(=O)CC(c3ccccc3)C2)C1c1cccc(OC)c1 (stereo unspecified),inconclusive: 12%
16,Cc1ccc(-c2nnc(-c3nc(NCc4ccc(C)o4)c4ccccc4n3)o2)cc1,inactive
17,COc1cccc(Cn2c(CNS(=O)(=O)c3c(C)cc(C)cc3C)nc3cccnc32)c1,inconclusive: 20%
18,CSc1cccc(NC(=O)CNS(=O)(=O)c2cccs2)c1,inactive
19,CC(C)OC(=O)CC(=O)CSc1nc2c(c(-c3cccs3)c1C#N)CCCC2,inconclusive: 11%
20,CN(Cc1cc2n(n1)CCNC2)Cc1nc(-c2ccccc2)cs1,inconclusive: 16%
21,CN(Cc1ccccc1)C(=O)C[C@@H]1O[C@H](CNC(=O)c2ccc(F)c(Cl)c2)[C@@H](O)[C@H]1O,inactive

row,Structure (SMILES),inhibition
1,CCCn1ccnc1CN1CCC(N2CCCC2=O)CC1,inactive
2,O=c1c2c(nc(SCc3ccc(Cl)cc3)n1-c1ccc(F)cc1)CCS2,inactive
3,NC(=O)C1CCN(S(=O)(=O)c2ccc(Br)cc2)CC1,inconclusive: 20%
4,CN1CCN(C(=O)c2cc(-c3ccc(Br)cc3)on2)CC1,inconclusive: 11%
5,Cc1ccc(-n2c(=O)c3sccc3n(CC(=O)NCC3CCCO3)c2=O)cc1F (stereo unspecified),inconclusive: 11%
6,CCOc1cc(C=C2C(=O)c3ccccc3C2=O)ccc1OC(C)C(=O)O (stereo unspecified),inactive
7,Cc1nc2cc(Br)cc(Br)c2o1,inconclusive: 24%
8,COc1cc(CC(=O)N2CC[C@H](CO)[C@H](O)C2)cc(OC)c1,inactive
9,Cc1ccc(C2(c3noc(Cn4cc(C)nc4C)n3)CCCC2)cc1,inconclusive: 19%
10,O=C(CS(=O)(=O)c1cn(Cc2ccccc2Cl)c2ccccc12)N1CCCC1,inactive
11,O=C(NC1CCCCCC1)c1ccc(NS(=O)(=O)c2cccs2)cc1,inconclusive: 19%
12,CCOC(=O)N1CCC(N2CCOC(CCc3ccccc3)C2)CC1 (stereo unspecified),inactive
13,Cc1cnn(CCC(=O)N2CCC(=O)N(CC3CC3)C(C(C)C)C2)c1 (stereo unspecified),inactive
14,CNCC(=O)N[C@H]1CCC[C@H]1Cc1ccc(F)cc1,inconclusive: 12%
15,OCCOc1cccc(-c2nccn2-c2ccc(CCO)cc2)c1,inconclusive: 21%
16,CN1CCN(CC/C=C2/c3ccccc3Sc3ccc(S(=O)(=O)N(C)C)cc32)CC1,inconclusive: 12%
17,Cc1ccccc1CN1CCC(CN(Cc2cccnc2)C(=O)c2sccc2C)CC1,inconclusive: 11%
18,CCCCN(CC)S(=O)(=O)Cc1ccccc1,inactive
19,Cc1cc(C)c(/C=C/C(=O)c2cccs2)c(C)c1,active: 44%
20,CCOCCCNC(=O)C1c2c(n(C)c3ccccc23)SCC(=O)N1c1cccc(Cl)c1 (stereo unspecified),inactive
21,CCc1ccc(CN(C)Cc2cnc3c(-c4ccccc4)cnn3c2)nc1,inactive

row,Structure (SMILES),inhibition
1,O=C(NCCc1ccc(Cl)cc1)C1CCC(Cn2c(=O)[nH]c3ccsc3c2=O)CC1 (stereo unspecified),inconclusive: 17%
2,O=C(c1cccn2c(=O)c3c4c(sc3nc12)CCCC4)N1CCC2(CC1)OCCO2,inactive
3,CC(CCc1ccccc1)NC(=O)c1ccc(Br)o1 (stereo unspecified),inconclusive: 18%
4,Cn1c(=O)c2c(nc(NCc3ccccn3)n2Cc2ccc(F)cc2)n(C)c1=O,inactive
5,C=CCN1C(=O)CSc2ccc(C(=O)NCc3ccc(F)cc3)cc21,inactive
6,COc1ccc(CCNc2oc(COc3ccc(Cl)cc3)nc2C#N)cc1,active: 38%
7,CO/N=C(/C(=O)N[C@@H]1C(=O)N2C(C(=O)O)=C(CSc3nc(=O)c(O)nn3C)CSC12)c1csc(N)n1 (stereo partly specified),inconclusive: 14%
8,O=C(COc1ccccc1)n1c2ccccc2c2ccccc21,inconclusive: 14%
9,C=CCN1C(=O)CSc2ccc(C(=O)NCc3ccc(C)cc3)cc21,inactive
10,CC(=O)c1ccc(NC(=O)COc2ccc(C)cc2C)cc1,inactive
11,CCOc1cc(C2Nc3ccccc3NC3=C2C(=O)CC(c2cccs2)C3)ccc1OC (stereo unspecified),inconclusive: 21%
12,CC(C)(C=O)Cc1cc(C(C)(C)C)c(O)c(C(C)(C)C)c1,inconclusive: 18%
13,O=S(=O)(NC[C@H]1O[C@@H](CO)[C@@H](O)[C@H]1N1CCN(c2ccc(F)cc2)CC1)c1cccs1,inconclusive: 23%
14,Cc1nn(CCCC(=O)NCc2ccco2)c(C)c1[N+](=O)[O-],inconclusive: 13%
15,O=S(=O)(O)c1ccc(Nc2ccccc2)cc1,inactive
16,CCOC(=O)c1c(C)n(CC)c2ccc(OC(=O)COc3ccc(C)cc3)cc12,inactive
17,Cc1ccc(OCc2cc(=O)n3oc(C)cc3n2)c(NC(=O)COc2ccccc2)c1,inactive
18,O=C(NCc1ccco1)c1ccc2c(c1)N(Cc1cccc(Cl)c1)C(=O)c1ccccc1S2,inactive
19,O=C(CN1C(=O)S/C(=C\C=C\c2ccccc2)C1=O)Nc1ccc(C(=O)O)cc1,active: 32%

# — PubChem BioAssay AID1259354 (Paczesny and Yang Labs, IUPUI and University of Michigan, 2018)
